Results are given in words; binding and its absence hold for the method and conditions named. For some of these results: In cells and extracts the contact can be indirect. Some results given as binding are weak or reduced against the parent protein; the word gives no strength.
Columns and labels:
[1] = target: calcyclin-binding protein (CacyBP) (human) (UniProt Q9HB71); experiment: BioID in organotypic human epidermal tissue
periplakin (human) = periplakin (human) (UniProt O60437); experiment: PLA of endogenous periplakin and HA in skin organoids expressing HA-MAB21L4 (FIG. 9c,d)
envoplakin (human) = envoplakin (human) (UniProt Q92817); experiment: PLA of endogenous envoplakin and HA in skin organoids expressing HA-MAB21L4 (FIG. 9a,b)
[2] = target: calcyclin-binding protein (CacyBP) (human) (UniProt Q9HB71); experiment: PLA (HA / CacyBP) and anti-FLAG co-immunoprecipitation with western blot, human skin organoids

Chains of the proteins cited; added tags and fusions are not shown. Residues count along the entry.
UniProt Q9HB71, residues 2-228: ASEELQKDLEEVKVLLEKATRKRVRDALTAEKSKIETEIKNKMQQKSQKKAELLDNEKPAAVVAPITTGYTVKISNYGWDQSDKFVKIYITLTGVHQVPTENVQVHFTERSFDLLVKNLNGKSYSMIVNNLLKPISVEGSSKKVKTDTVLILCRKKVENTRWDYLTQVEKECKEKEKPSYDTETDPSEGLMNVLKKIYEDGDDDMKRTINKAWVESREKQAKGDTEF
UniProt O60437: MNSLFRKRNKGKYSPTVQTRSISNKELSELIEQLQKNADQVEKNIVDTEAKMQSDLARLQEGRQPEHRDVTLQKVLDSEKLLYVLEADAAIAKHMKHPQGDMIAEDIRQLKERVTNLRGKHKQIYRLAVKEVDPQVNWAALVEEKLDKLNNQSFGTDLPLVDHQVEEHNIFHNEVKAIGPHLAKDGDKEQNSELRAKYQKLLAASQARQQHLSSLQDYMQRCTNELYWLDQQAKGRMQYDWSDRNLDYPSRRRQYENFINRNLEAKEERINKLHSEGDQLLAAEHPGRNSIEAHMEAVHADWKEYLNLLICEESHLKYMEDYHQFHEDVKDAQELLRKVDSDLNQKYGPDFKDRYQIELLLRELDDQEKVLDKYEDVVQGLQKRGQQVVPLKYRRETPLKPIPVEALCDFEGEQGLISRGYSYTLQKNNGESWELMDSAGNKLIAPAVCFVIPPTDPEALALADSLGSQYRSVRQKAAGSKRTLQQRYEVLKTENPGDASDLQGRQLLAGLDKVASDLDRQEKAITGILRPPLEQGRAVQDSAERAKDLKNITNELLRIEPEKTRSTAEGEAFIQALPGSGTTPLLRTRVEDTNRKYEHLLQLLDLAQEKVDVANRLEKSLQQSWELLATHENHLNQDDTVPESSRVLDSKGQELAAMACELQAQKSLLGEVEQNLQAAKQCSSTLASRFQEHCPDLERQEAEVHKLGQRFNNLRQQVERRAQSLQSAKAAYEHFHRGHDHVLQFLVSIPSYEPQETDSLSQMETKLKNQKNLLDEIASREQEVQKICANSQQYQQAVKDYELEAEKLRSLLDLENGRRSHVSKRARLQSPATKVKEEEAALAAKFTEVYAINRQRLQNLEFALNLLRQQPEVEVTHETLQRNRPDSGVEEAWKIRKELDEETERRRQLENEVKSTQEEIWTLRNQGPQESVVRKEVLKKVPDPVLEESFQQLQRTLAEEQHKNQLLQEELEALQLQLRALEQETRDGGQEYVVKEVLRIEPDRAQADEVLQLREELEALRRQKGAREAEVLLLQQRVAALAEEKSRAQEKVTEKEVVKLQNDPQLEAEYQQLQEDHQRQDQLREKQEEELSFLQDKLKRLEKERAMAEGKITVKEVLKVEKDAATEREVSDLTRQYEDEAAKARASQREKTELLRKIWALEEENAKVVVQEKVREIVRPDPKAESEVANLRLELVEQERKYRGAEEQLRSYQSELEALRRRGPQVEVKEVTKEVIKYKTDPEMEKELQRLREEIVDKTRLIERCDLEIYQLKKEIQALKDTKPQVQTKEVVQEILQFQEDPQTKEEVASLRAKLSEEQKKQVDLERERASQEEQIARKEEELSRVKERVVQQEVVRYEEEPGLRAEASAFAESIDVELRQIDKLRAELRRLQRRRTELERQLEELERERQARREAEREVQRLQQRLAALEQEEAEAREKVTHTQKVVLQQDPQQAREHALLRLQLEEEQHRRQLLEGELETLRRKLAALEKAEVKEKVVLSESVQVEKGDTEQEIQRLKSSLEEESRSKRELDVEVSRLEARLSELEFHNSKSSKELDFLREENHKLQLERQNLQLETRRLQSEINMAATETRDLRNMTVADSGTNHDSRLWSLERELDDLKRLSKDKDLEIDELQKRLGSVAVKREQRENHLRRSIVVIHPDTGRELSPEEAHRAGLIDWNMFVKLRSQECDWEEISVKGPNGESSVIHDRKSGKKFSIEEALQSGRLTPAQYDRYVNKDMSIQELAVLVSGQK
UniProt Q92817: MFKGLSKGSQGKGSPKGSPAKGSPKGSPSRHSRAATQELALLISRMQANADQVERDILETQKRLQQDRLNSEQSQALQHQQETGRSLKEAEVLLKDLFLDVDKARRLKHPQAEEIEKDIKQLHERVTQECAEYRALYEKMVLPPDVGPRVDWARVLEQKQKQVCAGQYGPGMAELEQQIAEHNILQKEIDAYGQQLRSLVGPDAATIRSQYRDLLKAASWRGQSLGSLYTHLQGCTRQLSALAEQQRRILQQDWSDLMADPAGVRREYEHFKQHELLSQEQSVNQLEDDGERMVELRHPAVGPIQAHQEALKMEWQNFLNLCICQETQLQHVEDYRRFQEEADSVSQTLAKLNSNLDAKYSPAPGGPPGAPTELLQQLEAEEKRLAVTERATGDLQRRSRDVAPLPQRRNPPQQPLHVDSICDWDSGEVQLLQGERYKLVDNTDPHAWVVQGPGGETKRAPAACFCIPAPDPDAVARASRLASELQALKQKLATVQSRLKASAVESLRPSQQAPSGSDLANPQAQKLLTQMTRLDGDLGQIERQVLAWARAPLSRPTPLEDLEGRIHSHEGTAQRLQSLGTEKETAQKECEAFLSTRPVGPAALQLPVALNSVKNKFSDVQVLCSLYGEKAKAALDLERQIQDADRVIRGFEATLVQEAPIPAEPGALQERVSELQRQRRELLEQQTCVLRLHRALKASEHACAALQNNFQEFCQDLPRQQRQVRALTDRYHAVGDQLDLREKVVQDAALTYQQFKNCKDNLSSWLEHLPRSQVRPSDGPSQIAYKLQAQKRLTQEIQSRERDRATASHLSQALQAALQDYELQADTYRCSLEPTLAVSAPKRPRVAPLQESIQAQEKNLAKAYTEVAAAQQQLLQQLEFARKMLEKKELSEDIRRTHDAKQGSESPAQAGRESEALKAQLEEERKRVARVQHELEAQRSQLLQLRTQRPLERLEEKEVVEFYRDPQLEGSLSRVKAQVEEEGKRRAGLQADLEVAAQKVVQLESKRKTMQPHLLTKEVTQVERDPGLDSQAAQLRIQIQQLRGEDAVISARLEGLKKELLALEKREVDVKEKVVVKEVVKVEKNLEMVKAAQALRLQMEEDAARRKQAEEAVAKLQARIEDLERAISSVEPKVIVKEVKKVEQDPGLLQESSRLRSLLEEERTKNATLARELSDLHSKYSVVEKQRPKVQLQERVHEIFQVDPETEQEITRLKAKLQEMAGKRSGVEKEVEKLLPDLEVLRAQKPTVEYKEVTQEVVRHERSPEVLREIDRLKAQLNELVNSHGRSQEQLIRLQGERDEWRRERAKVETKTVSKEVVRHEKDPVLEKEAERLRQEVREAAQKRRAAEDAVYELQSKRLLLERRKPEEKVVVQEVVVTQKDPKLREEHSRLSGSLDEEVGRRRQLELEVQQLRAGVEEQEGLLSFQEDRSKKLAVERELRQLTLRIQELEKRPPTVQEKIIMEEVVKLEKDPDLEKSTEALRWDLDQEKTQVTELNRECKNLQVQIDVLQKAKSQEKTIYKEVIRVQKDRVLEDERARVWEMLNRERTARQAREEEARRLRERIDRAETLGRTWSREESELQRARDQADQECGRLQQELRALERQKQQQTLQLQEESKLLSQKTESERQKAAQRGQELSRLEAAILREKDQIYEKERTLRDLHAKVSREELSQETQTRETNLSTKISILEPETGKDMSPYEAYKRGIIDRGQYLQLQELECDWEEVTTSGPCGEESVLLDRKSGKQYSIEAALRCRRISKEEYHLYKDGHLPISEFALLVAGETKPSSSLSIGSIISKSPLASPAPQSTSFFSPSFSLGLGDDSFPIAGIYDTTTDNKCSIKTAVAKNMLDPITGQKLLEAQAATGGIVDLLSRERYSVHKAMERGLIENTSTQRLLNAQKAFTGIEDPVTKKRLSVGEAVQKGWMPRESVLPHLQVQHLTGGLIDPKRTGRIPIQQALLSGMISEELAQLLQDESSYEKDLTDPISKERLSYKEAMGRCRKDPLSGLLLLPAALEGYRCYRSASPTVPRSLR
UniProt Q08AI8: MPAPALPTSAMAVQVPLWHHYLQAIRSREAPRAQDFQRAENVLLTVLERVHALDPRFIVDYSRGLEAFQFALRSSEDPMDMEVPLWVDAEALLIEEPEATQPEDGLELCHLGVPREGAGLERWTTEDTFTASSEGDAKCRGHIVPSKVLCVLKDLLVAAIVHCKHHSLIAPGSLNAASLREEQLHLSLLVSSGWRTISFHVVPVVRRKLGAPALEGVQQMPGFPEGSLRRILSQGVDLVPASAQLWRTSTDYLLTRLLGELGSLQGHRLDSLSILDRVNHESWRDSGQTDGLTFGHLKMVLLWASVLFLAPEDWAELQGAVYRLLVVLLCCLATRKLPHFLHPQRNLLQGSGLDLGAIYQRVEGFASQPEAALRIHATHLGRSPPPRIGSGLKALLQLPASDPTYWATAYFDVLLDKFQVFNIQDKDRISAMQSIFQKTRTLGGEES

| Substance | binding [1] | binding (periplakin (human)) | binding (envoplakin (human)) | binding [2] |
| --- | --- | --- | --- | --- |
| 3×HA-BASU-MAB21L4 fusion protein (from UniProt Q08AI8 1-447) | binds |  |  |  |
| FLAG-HA-6×HIS (FHH)-MAB21L4 (from UniProt Q08AI8 1-447) |  | binds | binds | binds |

Reference: patent US20210023083A1
